Some of these results come from one statement about several compounds together.
Test system: mussel
Assay: Toxicity of detergents to mussel
Conditions: in vivo

| Substance | LC50 to mussel [ppm] |
| --- | --- |
| alkyl-D-glucosides | < 100 |
| Triton X-100 | < 100 |
